Experimental data as given in doi:10.1101/2020.05.09.085894.
No constants are given. Whether binding was seen depends on the method and setting. In cells and extracts the contact can be indirect. Some entries that bind do so weakly or less than the wild type. Where a sequence is shown, tags or fusion partners need not be part of it.

Amino acid sequences for entries named in this document (tags omitted). Residues count along the entry.
UniProt Q14247: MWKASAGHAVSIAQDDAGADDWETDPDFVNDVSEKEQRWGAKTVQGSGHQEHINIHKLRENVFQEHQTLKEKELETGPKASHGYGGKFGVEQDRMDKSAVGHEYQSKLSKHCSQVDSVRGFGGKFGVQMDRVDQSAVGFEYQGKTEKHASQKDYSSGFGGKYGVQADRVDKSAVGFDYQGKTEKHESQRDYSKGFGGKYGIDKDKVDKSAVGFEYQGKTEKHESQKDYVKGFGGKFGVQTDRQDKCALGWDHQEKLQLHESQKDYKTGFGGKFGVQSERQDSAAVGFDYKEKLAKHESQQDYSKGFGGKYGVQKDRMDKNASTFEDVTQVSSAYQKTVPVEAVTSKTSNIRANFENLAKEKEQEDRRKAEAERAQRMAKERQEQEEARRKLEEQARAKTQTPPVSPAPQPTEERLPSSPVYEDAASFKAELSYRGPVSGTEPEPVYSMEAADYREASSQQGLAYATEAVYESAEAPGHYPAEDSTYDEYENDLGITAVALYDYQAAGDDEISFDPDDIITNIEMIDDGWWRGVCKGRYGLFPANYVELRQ
UniProt Q05397: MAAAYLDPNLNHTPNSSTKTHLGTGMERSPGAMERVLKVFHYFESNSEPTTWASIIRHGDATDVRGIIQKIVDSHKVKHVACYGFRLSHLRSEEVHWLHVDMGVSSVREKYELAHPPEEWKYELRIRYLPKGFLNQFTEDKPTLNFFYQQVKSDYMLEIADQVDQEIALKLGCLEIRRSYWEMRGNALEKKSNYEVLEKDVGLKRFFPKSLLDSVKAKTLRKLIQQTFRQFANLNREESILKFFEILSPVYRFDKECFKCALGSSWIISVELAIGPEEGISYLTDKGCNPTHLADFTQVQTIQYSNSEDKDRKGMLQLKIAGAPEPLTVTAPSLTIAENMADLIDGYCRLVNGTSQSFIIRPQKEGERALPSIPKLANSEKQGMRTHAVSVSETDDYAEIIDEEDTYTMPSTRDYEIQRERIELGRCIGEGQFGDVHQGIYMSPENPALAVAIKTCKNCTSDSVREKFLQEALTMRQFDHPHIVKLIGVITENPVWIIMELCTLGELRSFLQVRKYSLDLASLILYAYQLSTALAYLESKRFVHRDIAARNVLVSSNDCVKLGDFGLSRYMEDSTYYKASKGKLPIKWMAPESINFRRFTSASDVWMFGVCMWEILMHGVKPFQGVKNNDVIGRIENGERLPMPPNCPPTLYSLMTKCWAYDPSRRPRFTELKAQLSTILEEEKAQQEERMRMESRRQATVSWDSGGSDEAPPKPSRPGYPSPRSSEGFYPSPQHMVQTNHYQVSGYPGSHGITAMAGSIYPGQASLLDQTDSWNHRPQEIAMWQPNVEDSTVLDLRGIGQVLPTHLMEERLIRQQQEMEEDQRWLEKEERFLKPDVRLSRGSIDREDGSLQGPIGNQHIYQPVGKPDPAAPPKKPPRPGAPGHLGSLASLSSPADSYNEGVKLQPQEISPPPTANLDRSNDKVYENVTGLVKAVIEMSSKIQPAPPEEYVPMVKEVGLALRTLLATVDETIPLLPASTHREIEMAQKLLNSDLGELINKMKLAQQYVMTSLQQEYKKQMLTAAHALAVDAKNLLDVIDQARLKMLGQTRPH
UniProt P05106, residues 27-788: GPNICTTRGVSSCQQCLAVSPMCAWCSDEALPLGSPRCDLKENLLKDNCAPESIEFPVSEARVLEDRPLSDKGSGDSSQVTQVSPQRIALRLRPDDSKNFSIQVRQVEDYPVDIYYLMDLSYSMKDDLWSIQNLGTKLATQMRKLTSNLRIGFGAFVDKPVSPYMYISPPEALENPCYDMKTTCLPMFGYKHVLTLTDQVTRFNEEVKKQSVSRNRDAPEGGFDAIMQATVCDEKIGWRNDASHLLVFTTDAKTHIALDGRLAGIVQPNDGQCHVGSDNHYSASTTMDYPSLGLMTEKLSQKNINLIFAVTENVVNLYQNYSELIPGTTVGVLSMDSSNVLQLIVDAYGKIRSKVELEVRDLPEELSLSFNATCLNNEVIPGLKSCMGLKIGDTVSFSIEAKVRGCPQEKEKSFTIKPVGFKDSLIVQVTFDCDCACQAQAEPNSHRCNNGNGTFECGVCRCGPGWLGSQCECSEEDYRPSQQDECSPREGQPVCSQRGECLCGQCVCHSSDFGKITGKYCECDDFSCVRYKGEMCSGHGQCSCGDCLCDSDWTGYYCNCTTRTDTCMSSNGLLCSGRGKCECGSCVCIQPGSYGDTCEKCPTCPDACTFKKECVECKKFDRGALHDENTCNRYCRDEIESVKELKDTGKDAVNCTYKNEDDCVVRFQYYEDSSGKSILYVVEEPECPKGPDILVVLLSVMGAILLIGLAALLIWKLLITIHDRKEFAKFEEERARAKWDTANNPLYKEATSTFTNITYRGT
UniProt P35580: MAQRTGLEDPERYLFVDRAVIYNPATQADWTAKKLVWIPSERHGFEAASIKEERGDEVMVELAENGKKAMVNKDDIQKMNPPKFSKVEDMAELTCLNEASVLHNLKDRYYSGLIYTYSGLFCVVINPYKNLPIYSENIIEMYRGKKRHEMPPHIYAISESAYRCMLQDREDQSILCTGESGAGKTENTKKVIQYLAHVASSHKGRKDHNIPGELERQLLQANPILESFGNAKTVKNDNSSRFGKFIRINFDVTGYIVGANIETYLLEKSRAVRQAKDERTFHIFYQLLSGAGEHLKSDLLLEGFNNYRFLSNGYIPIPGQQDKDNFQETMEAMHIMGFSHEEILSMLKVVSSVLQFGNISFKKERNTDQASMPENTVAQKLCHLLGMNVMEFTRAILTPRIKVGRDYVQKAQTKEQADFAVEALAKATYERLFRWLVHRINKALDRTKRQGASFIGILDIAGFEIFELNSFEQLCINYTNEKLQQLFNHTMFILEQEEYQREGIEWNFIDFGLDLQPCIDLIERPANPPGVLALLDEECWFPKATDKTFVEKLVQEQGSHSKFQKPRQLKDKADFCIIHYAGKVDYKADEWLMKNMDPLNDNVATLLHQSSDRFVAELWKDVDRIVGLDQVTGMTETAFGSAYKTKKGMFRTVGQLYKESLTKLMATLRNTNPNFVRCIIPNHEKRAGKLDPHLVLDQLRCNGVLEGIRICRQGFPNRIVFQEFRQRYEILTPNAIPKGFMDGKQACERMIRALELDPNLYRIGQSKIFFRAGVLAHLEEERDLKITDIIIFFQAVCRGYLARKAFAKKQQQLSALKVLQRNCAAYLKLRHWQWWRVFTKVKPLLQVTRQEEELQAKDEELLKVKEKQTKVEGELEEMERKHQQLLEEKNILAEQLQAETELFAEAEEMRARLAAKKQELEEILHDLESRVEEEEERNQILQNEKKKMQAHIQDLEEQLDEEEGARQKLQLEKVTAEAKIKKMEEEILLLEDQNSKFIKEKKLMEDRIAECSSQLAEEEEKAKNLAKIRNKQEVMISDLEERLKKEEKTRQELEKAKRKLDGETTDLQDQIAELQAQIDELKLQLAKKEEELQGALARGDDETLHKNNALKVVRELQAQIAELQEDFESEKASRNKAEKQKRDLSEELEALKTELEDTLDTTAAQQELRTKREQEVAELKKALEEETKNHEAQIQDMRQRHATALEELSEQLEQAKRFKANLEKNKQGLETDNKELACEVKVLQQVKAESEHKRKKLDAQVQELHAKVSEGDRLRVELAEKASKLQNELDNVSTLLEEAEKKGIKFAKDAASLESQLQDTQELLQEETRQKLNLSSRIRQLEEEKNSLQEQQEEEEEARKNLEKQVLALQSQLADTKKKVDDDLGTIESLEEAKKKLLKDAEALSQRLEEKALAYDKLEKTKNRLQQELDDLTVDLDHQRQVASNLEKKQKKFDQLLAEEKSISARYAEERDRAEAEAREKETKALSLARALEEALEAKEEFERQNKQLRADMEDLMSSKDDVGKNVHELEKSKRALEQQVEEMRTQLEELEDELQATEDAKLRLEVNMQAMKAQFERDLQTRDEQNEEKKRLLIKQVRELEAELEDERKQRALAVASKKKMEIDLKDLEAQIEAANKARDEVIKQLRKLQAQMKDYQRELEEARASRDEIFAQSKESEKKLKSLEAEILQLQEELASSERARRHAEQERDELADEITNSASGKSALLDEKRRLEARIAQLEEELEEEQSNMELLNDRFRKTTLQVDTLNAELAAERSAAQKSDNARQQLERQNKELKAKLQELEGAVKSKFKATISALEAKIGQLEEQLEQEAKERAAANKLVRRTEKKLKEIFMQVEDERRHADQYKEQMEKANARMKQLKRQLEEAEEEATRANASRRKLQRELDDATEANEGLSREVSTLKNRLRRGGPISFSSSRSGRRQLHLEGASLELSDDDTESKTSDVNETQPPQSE

These substances were tested against T1, HA-tagged syndecan-1 (human) (UniProt P18827) (assay: co-IP).
T1 sequence: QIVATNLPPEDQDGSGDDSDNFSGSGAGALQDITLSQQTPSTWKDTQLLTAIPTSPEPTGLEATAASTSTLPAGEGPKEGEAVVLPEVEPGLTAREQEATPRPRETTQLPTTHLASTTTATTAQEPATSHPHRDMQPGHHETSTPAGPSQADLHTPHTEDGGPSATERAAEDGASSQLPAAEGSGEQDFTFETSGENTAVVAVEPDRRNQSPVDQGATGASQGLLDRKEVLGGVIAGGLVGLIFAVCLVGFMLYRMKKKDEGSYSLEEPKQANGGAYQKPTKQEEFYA

binding, binds:
cortactin (from UniProt Q14247 1-550)
focal adhesion kinase (from UniProt Q05397 1-1052) (enzyme)
integrin β3 (from UniProt P05106 27-788) (receptor)
non-muscle myosin IIb (from UniProt P35580 1-1976)
